# Reference: patent US5144006 (dated 1992)
# Test: general procedure: Boc solid-phase peptide synthesis; p-methylbenzhydrylamine resin (model peptides); Pam-resin (ET, BET)
# Details: whole synthesis
substance,measurement,value
human defensin,difficulty met,Copious precipitation occurred during all stages of the dialysis
